PubChem BioAssay (EPA / NIEHS)
“And” between values parts separate entries of the source, which are not always exact repeats. Equal values may be shown once. This list was built around the results that the source calls inconclusive (neither active nor inactive); the mix of calls is not that of the screen. Potencies beside an inconclusive call are fits to weak or partial responses and may not hold up. The source made the active and inactive calls. How the source made its calls: active means hit-call score of the fitted dose curve at least 0.9, where 1 is the maximum; inconclusive means response in the unintended direction; inactive means score below 0.9.

Amino acid sequences for entries named in this document (tags omitted). A change or cut given only in a name is not applied to a line headed by its entry.
UniProt Q9UNQ0: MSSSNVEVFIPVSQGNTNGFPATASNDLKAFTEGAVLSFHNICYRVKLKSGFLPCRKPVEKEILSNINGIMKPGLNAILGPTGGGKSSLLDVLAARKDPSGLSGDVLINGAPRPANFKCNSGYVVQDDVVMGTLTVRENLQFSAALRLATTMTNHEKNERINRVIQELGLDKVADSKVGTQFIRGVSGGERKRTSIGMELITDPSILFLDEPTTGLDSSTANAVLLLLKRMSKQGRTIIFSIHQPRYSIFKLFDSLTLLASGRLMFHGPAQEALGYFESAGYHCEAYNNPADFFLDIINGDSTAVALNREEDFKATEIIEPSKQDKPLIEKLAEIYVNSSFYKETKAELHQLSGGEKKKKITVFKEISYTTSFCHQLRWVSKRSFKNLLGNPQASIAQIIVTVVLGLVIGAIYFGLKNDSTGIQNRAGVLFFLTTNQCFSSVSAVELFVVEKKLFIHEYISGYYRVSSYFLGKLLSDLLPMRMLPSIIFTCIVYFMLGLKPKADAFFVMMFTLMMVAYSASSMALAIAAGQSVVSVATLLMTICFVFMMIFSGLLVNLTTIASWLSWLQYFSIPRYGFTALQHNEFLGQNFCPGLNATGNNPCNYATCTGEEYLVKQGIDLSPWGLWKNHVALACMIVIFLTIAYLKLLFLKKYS

Legend:
[1] = Tanguay_ZF_120hpf_PFIN_legacy: (Legacy) Oregon State University Tanguay Lab 120 Hour Post-fertilization zebrafish Assay for Pectoral Fin Malformation (AID 2283648);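 further: each larva judged yes or no for fin defect by brightfield with dead larvae skipped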
Procedure, shortened: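 Scoring of pectoral fin malformation was binary, made at 120 hpf on larvae exposed statically from 6 hpf after enzymatic chorion removal. Activity was fitted upward relative to DMSO controls at 0.64% (vol/vol).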

[2] = Tanguay_ZF_120hpf_CFIN_legacy: (Legacy) Oregon State University Tanguay Lab 120 Hour Post-fertilization zebrafish Assay for Caudal Fin Malformation (AID 2283649)
Procedure, shortened: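 Tropical 5D wild-type embryos, dechorionated with pronase at 4 hpf, were placed singly in wells at 6 hpf and statically exposed to compound at 28C until 120 hpf (0.64% DMSO). Caudal fin malformation was scored present/absent by brightfield microscopy.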

[3] = Tanguay_ZF_120hpf_PIG_legacy: (Legacy) Oregon State University Tanguay Lab 120 Hour Post-fertilization zebrafish Assay for Pigmentation Malformation (AID 2283650)
Procedure, shortened: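 Endpoint is incidence of abnormal pigmentation at 120 hpf in dechorionated 5D zebrafish exposed singly from 6 hpf at 28C, DMSO vehicle at 0.64%. Embryos dying by 24 or 120 hpf are excluded from scoring.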

[4] = Tanguay_ZF_120hpf_TRUN_legacy: (Legacy) Oregon State University Tanguay Lab 120 Hour Post-fertilization zebrafish Assay for Truncated Body (AID 2283655)
Procedure, shortened: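 Tropical 5D wild-type embryos, dechorionated with pronase at 4 hpf, were placed singly in wells at 6 hpf and statically exposed at 28C until 120 hpf, final DMSO 0.64%. Truncated body was scored present/absent by brightfield microscopy.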

[5] = Tanguay_ZF_120hpf_NC_legacy: (Legacy) Oregon State University Tanguay Lab 120 Hour Post-fertilization zebrafish Assay for Notochord and Tail Malformation (AID 2283656)
Procedure, shortened: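 Binary notochord-distortion calls, made by brightfield inspection, form the read-out; activity is fitted in the positive direction against DMSO. Exposure ran statically from 6 to 120 hpf at 28C with 0.64% DMSO.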

[6] = read-out: Broad substrate specificity ATP-binding cassette transporter ABCG2 (Homo sapiens) (UniProt Q9UNQ0); test: CLD_ABCG2_6hr: CellzDirect (CLD) Gene Expression Assay for ABC Transporter (ABCG2) at 6 hours (AID 2283660)
Procedure, shortened: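 ABCG2 mRNA induction measured by qNPA chemiluminescence in human primary hepatocyte cultures, 6 h post-dose. Chemicals tested at several concentrations against a 0.2% DMSO vehicle; positive-direction fit relative to DMSO.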

[7] = read-out: xenobiotic metabolism (CYP1A1), CYP1A1 (gene 1543); test: CLD_CYP1A1_6hr: CellzDirect (CLD) Gene Expression Assay for xenobiotic metabolism (CYP1A1) at 6 hours (AID 2283661);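 on AC50: potency for transcript induction above DMSO vehicle baseline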
Procedure, shortened: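 Read-out 6 h post-dose: qNPA chemiluminescent quantitation of transcript induction against 0.2% DMSO. Cells were cultured primary human hepatocytes from two separate donor preparations; phase-contrast morphology annotated apparent cytotoxicity.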

[8] = Tanguay_ZF_120hpf_BRAI_legacy: (Legacy) Oregon State University Tanguay Lab 120 Hour Post-fertilization zebrafish Assay for Brain Malformation (AID 2283641)
Procedure, shortened: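 Tropical 5D wild-type zebrafish embryos were exposed statically in sealed, foil-covered plates at 28C until 120 hpf, with 0.64% (vol/vol) final DMSO. Brain malformation was scored present/absent by brightfield microscopy, relative to DMSO baseline.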

[9] = Tanguay_ZF_120hpf_SWIM_legacy: (Legacy) Oregon State University Tanguay Lab 120 Hour Post-fertilization zebrafish Assay for Swim Bladder Malformation (AID 2283654);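 further: swim bladder malformation in each larva scored yes or no under brightfield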
Procedure, shortened: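 Static waterborne exposure of single dechorionated Tropical 5D zebrafish embryos, 6–120 hpf, 28C, 0.64% DMSO final. Read-out: swim bladder malformation, present/absent, relative to DMSO negative control; trimethyltin chloride 5uM served as positive control.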

[10] = Tanguay_ZF_120hpf_CIRC_legacy: (Legacy) Oregon State University Tanguay Lab 120 Hour Post-fertilization zebrafish Assay for Circulatory Malformation (AID 2283651)
Procedure, shortened: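 Static exposure, 6–120 hpf, 28C, sealed and dark; one dechorionated 5D embryo/well; DMSO 0.64% v/v final. Binary circulation endpoint by brightfield; dead embryos not scored.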

[11] = read-out: ABC Transporter (ABCB1), ABCB1 (gene 5243); test: CLD_ABCB1_6hr: CellzDirect (CLD) Gene Expression Assay for ABC Transporter (ABCB1) at 6 hours (AID 2283659);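 on outcome: hits raise ABCB1 transcript above the DMSO vehicle baseline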
Procedure, shortened: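 ABCB1 transcript measured by quantitative nuclease protection assay, chemiluminescent read-out, 6 h after dosing human hepatocyte cultures (0.2% DMSO vehicle, daily redosing). Activity fitted as increase over DMSO baseline; cytotoxicity flagged by phase-contrast morphology.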

C#CCN1C(=O)COc2cc(F)c(N3C(=O)C4=C(CCCC4)C3=O)cc21
outcome [1]: inactive
outcome [2]: inactive
outcome [3]: inactive
AC50 [4]: inconclusive: 4.7 µM
outcome [5]: inactive
AC50 [6]: inconclusive: 1.36 µM
AC50 [7]: inconclusive: 0.134 µM

CCC(C)(C)C(=O)OC1=C(c2ccc(Cl)cc2Cl)C(=O)OC12CCCCC2
AC50 [8]: inconclusive: 30.3 µM
outcome [3]: inactive
AC50 [5]: inconclusive: 33.8 µM
AC50 [7]: inconclusive: 20 µM

COP(=S)(OC)SCn1nnc2ccccc2c1=O
AC50 [1]: inconclusive: 35.8 µM
outcome [3]: inactive
outcome [9]: inactive
AC50 [4]: inconclusive: 0.0108 µM
outcome [6]: inactive
AC50 [7]: active: 6.49 µM

CCc1cccc(CC)c1N(COC)C(=O)CCl
AC50 [2]: inconclusive: 50.8 µM
outcome [6]: inactive
AC50 [7]: inconclusive: 20 µM

CCOP(=S)(OCC)Oc1nc(Cl)c(Cl)cc1Cl
AC50 [1]: inconclusive: 30.6 µM
AC50 [9]: inconclusive: 202 µM
outcome [5]: inactive

CCCCCCCCCCCCCN1CC(C)OC(C)C1 (configuration not stated)
outcome [2]: inactive
AC50 [5]: inconclusive: 36.9 µM

CCCCCOC(=O)c1ccccc1C(=O)OCCCCC
outcome [1]: inactive
AC50 [2]: inconclusive: 72.3 µM

CCCCc1ccccc1
outcome [1]: inactive
AC50 [5]: inconclusive: 26.9 µM

CCC(=O)C(CC(C)N(C)C)(c1ccccc1)c1ccccc1 (configuration not stated)
outcome [1]: inactive

CCCCNC(=O)OCC#CI
outcome [2]: inactive
outcome [3]: inactive

Cc1ccn2nc(S(=O)(=O)Nc3c(F)cccc3F)nc2n1
outcome [3]: inactive

COC(=O)C(C)Oc1ccc(Oc2ccc(Cl)cc2Cl)cc1 (configuration not stated)
AC50 [6]: inconclusive: 20 µM
outcome [6]: inactive
AC50 [7]: inconclusive: 0.000441 µM

CN(C)C(=S)SSC(=S)N(C)C
AC50 [7]: inconclusive: 20 µM

CO[C@@H]1[C@H](OC(=O)NC(=O)CCl)CC[C@]2(CO2)[C@H]1[C@@]1(C)O[C@@H]1CC=C(C)C
AC50 [3]: inconclusive: 64.7 µM
outcome [4]: inactive

CSc1nc(NC(C)C)nc(NC(C)C)n1
AC50 [4]: inconclusive: 43.4 µM

COc1nn(CSP(=S)(OC)OC)c(=O)s1
AC50 [10]: inconclusive: 0.00064 µM
AC50 [6]: inconclusive: 20 µM

Cc1ccc(O)c(C)c1
outcome [3]: inactive

C=CC(=O)OCCCCCC(C)C
AC50 [3]: inconclusive: 0.0095 µM
outcome [10]: inactive

Cc1cc(Cl)ccc1OCC(=O)O
AC50 [10]: inconclusive: 25.8 µM
AC50 [5]: inconclusive: 9.82 µM

O=[N+]([O-])/N=C1\NCCN1Cc1ccc(Cl)nc1
AC50 [9]: inconclusive: 7.48 µM
outcome [4]: inactive
outcome [7]: inactive

COc1nc(C)nc(NC(=O)NS(=O)(=O)c2ccccc2Cl)n1
AC50 [6]: inconclusive: 0.000799 µM

O=C1C2(Cl)C3(Cl)C4(Cl)C(Cl)(Cl)C5(Cl)C3(Cl)C1(Cl)C5(Cl)C24Cl (configuration not stated)
AC50 [9]: inconclusive: 10.1 µM
AC50 [4]: active: 15.2 µM

CCNc1nc(Cl)nc(NCC)n1
AC50 [3]: inconclusive: 8.3 µM
AC50 [5]: inconclusive: 4.65 µM
AC50 [11]: inconclusive: 20 µM
AC50 [6]: inconclusive: 20 µM

Cc1ccccc1[N+](=O)[O-]
AC50 [5]: inconclusive: 1.78 µM

O=C(O)COc1nc(Cl)c(Cl)cc1Cl
AC50 [5]: inconclusive: 81.7 µM
outcome [6]: inactive
AC50 [7]: inconclusive: 0.501 µM

O=C(N[C@H]1CN2CCC1CC2)c1cc2ccoc2cn1
outcome [10]: inactive

CNC(=S)S
AC50 [10]: inconclusive: 120 µM
AC50 [9]: inconclusive: 1.32 µM
AC50 [11]: inconclusive: 20 µM

CC1(C)C(C(=O)OC(C#N)c2cccc(Oc3ccccc3)c2)C1(C)C (configuration not stated)
AC50 [6]: inconclusive: 20 µM

[2H]C1([2H])[n+]2ccccc2-c2cccc[n+]2C1([2H])[2H]
AC50 [6]: inconclusive: 0.00081 µM
AC50 [7]: inconclusive: 0.00783 µM

COc1nc(C)nc(NC(=O)NS(=O)(=O)c2ccccc2CCC(F)(F)F)n1
outcome [11]: inactive
AC50 [6]: inconclusive: 20 µM

CSc1nnc(C(C)(C)C)c(=O)n1N
AC50 [3]: inconclusive: 28.1 µM
outcome [9]: inactive

O=[N+]([O-])c1c(Cl)c(Cl)c(Cl)c(Cl)c1Cl
outcome [7]: inactive

OCCCBr
AC50 [3]: inconclusive: 7.3 µM
AC50 [10]: inconclusive: 155 µM

CC[C@H](C)[C@H]1O[C@]2(C=C[C@@H]1C)C[C@@H]1C[C@@H](C/C=C(\C)[C@@H](O[C@H]3C[C@H](OC)[C@@H](O[C@H]4C[C@H](OC)[C@@H](O)[C@H](C)O4)[C@H](C)O3)[C@@H](C)/C=C/C=C3\CO[C@@H]4[C@H](O)C(C)=C[C@@H](C(=O)O1)[C@]34O)O2 (tested in a mixture with another compound)
AC50 [7]: inconclusive: 20 µM

CNC(=O)ON=C(SC)C(=O)N(C)C
AC50 [10]: inconclusive: 27.2 µM
AC50 [7]: inconclusive: 0.00492 µM

CCOc1nc(NC)nc(NC(=O)NS(=O)(=O)c2ccccc2C(=O)OC)n1
outcome [6]: inactive
outcome [7]: inactive

CCCCOC(=O)c1ccccc1C(=O)OCCCC
AC50 [6]: inconclusive: 36.2 µM and inconclusive: 20 µM

CCC(CC)Nc1c([N+](=O)[O-])cc(C)c(C)c1[N+](=O)[O-]
AC50 [6]: inconclusive: 20 µM

O=[N+]([O-])c1ccc(Cl)c(Cl)c1
AC50 [9]: inconclusive: 6.78 µM

COc1nc(NC(C)C)nc(NC(C)C)n1
outcome [6]: inactive
AC50 [7]: active: 3.97 µM

CN(C)NC(=O)CCC(=O)O
AC50 [10]: inconclusive: 37.5 µM
AC50 [7]: inconclusive: 1.9 µM

C=CCC1=C(C)C(OC(=O)C2C(C=C(C)C)C2(C)C)CC1=O (configuration not stated)
AC50 [9]: inconclusive: 180 µM
AC50 [5]: inconclusive: 5.43 µM

O=[N+]([O-])c1ccccc1
AC50 [3]: inconclusive: 164 µM
AC50 [5]: inconclusive: 28.4 µM

CCN(CC)c1nc(C)cc(OP(=S)(OC)OC)n1
AC50 [10]: inconclusive: 19.2 µM
AC50 [6]: inconclusive: 6.81 µM

CC(C)(C)c1cc(O)ccc1O
AC50 [3]: inconclusive: 0.291 µM
outcome [10]: inactive
AC50 [9]: inconclusive: 0.568 µM

CCNP(=S)(OC)O/C(C)=C/C(=O)OC(C)C (configuration not stated)
AC50 [6]: inconclusive: 20 µM

CCCCCCCCCC[N+](C)(C)CCCCCCCCCC
AC50 [3]: inconclusive: 8.24 µM

CCC(=NOC/C=C/Cl)C1=C(O)CC(C2CCOCC2)CC1=O (configuration not stated)
outcome [6]: inactive

CNC(=O)Oc1cccc2c1OC(C)(C)O2
outcome [3]: inactive
AC50 [10]: inconclusive: 23.9 µM
AC50 [6]: inconclusive: 0.000395 µM
